The target in test [1] is PP1γ (endogenous) (human (endogenous in HeLa)) (UniProt P36873). As to the kind of experiment: co-IP; antibodies against human PP1 isoforms or control antibodies (PIS rabbit IgGs); diluted MAPs from the mitotic spindle and chromatin associated proteome of HeLa; western blot. Background: A western blot detects proteins with antibodies after separation by electrophoresis.
The target in test [2] is PP1β (endogenous) (human (endogenous in HeLa)) (UniProt P62140). The description is as above.
Test [3] deals with T1, His6-Ddx21_(double) (human) (UniProt Q9NR30).
T1 sequence: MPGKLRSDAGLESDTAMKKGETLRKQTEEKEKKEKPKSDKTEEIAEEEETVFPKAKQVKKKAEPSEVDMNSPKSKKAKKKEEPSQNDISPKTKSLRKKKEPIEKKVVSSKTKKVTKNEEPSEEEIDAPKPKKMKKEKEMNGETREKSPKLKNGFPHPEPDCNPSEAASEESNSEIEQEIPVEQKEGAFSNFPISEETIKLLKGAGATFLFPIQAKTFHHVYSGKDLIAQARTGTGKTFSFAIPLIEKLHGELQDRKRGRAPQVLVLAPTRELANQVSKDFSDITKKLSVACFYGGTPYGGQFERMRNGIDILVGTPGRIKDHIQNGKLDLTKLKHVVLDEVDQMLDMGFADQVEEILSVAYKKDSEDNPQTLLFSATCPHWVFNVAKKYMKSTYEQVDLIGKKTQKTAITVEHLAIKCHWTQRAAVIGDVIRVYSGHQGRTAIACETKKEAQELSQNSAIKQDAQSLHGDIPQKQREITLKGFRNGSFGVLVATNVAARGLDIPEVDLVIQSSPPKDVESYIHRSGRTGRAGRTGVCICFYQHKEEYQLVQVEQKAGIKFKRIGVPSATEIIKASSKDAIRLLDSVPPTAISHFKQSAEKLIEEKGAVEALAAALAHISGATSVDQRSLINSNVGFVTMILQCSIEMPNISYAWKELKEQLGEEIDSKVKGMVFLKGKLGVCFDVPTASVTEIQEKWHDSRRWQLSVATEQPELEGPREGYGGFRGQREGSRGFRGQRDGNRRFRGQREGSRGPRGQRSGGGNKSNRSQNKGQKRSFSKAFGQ
The experiment in a line: pull-down; 300 ng PP1 and 200 ng His6-Ddx21 in 25 mM Tris pH 7.5, 5% glycerol, 150 mM NaCl, 0.5% Igepal630, 10 mM imidazole, 4°C; Ni-NTA beads; wash 450 mM NaCl, 0.5% Tween-20 (γ: 500 mM NaCl, 0.75% Tween-20); western blot; both purified.

By UniProt entry, the sequences of proteins in these tests, tags left out.
UniProt P36873: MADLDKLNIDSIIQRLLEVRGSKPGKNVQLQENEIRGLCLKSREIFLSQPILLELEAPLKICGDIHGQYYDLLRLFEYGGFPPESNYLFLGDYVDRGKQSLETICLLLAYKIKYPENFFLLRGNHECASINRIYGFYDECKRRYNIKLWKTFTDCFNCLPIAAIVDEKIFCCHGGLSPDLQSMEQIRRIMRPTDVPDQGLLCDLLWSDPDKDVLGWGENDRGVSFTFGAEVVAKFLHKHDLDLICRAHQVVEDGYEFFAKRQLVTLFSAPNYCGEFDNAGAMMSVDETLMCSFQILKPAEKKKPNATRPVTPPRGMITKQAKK
UniProt Q96SB4: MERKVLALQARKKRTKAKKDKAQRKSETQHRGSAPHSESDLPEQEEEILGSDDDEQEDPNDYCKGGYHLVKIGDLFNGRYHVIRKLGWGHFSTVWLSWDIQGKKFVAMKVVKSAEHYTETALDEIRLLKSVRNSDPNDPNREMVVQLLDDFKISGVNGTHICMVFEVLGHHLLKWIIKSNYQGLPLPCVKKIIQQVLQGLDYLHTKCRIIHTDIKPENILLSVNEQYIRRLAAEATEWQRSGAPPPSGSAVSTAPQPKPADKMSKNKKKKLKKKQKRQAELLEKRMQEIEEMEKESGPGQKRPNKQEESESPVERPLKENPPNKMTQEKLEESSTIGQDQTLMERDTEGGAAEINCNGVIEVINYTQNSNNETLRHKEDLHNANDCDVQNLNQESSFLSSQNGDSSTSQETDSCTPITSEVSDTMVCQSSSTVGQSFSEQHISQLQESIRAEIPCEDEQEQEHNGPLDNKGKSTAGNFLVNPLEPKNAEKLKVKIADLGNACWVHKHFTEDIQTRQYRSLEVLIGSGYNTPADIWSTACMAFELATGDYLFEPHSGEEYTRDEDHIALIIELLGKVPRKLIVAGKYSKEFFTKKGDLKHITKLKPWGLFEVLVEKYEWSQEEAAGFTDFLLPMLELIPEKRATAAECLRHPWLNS

The target of test [4] is His6-Ddx21_(motif1) (human) (UniProt Q9NR30). Described as above.

Results are given in words; binding and its absence hold for the method and conditions named. For some of these results: In cells and extracts the contact can be indirect. Some entries that bind do so weakly or less than the wild type. For some of these results: Tags and fused reporters may be left off the sequences shown.

Drawing on PMC3386289, “Isolation of Human Mitotic Protein Phosphatase Complexes: Identification of a Complex between Protein Phosphatase 1 and the RNA Helicase Ddx21” (PLoS ONE, 2012), this text covers binding for two molecules.

For the molecule “Serine/Arginine Protein kinase SRPK1 (from UniProt Q96SB4 1-655) (enzyme)”, the binding result in test [1] was “binds”; in test [2], “no binding”.

B1: PP1β, bacterially expressed and purified (enzyme, human, UniProt P62140 1-327, looked up)
chain: MADGELNVDSLITRLLEVRGCRPGKIVQMTEAEVRGLCIKSREIFLSQPILLELEAPLKICGDIHGQYTDLLRLFEYGGFPPEANYLFLGDYVDRGKQSLETICLLLAYKIKYPENFFLLRGNHECASINRIYGFYDECKRRFNIKLWKTFTDCFNCLPIAAIVDEKIFCCHGGLSPDLQSMEQIRRIMRPTDVPDTGLLCDLLWSDPDKDVQGWGENDRGVSFTFGADVVSKFLNRHDLDLICRAHQVVEDGYEFFAKRQLVTLFSAPNYCGEFDNAGGMMSVDETLMCSFQILKPSEKKAKYQYGGLNSGRPVTPPRTANPPKKR
notes: Protein phosphatase 1 catalytic subunit, isoform β, human; also called protein phosphatase 1 beta
Take B1: the values for the binding result in test [3] and in test [4] were “binds weakly” and “no binding”, respectively.
